This assay addresses cellular prion protein (PrP^C), endogenous in N2a cells (mouse (endogenous in N2a)) (UniProt P04925). The assay is described as follows: pull-down.

No constants are given. Whether binding was seen depends on the method and setting. In cells and extracts the contact can be indirect. Some entries that bind do so weakly or less than the wild type.

B1: calnexin, endogenous in N2a cells (protein, UniProt P35564 21-591)
chain: HDGHDDDAIDIEDDLDDVIEEVEDSKSKSDASTPPSPKVTYKAPVPTGEVYFADSFDRGSLSGWILSKAKKDDTDDEIAKYDGKWEVDEMKETKLPGDKGLVLMSRAKHHAISAKLNKPFLFDTKPLIVQYEVNFQNGIECGGAYVKLLSKTAELSLDQFHDKTPYTIMFGPDKCGEDYKLHFIFRHKNPKTGVYEEKHAKRPDADLKTYFTDKKTHLYTLILNPDNSFEILVDQSVVNSGNLLNDMTPPVNPSREIEDPEDRKPEDWDERPKIADPDAVKPDDWDEDAPSKIPDEEATKPEGWLDDEPEYIPDPDAEKPEDWDEDMDGEWEAPQIANPKCESAPGCGVWQRPMIDNPNYKGKWKPPMIDNPNYQGIWKPRKIPNPDFFEDLEPFKMTPFSAIGLELWSMTSDIFFDNFIISGDRRVVDDWANDGWGLKKAADGAAEPGVVLQMLEAAEERPWLWVVYILTVALPVFLVILFCCSGKKQSNAMEYKKTDAPQPDVKDEEGKEEEKNKRDEEEEEEKLEEKQKSDAEEDGVTGSQDEEDSKPKAEEDEILNRSPRNRKPRRE
With B1, the binding result was “binds”.

For the origin of these results see article PMC8704586.
